Source: PMC2845627
No constants are given. Whether binding was seen depends on the method and setting. Some results given as binding are weak or reduced against the parent protein; the word gives no strength.

T1: AtGyrB3 (Hybrigenics two-hybrid service) (A. thaliana) (UniProt Q8VY11)
T1 sequence: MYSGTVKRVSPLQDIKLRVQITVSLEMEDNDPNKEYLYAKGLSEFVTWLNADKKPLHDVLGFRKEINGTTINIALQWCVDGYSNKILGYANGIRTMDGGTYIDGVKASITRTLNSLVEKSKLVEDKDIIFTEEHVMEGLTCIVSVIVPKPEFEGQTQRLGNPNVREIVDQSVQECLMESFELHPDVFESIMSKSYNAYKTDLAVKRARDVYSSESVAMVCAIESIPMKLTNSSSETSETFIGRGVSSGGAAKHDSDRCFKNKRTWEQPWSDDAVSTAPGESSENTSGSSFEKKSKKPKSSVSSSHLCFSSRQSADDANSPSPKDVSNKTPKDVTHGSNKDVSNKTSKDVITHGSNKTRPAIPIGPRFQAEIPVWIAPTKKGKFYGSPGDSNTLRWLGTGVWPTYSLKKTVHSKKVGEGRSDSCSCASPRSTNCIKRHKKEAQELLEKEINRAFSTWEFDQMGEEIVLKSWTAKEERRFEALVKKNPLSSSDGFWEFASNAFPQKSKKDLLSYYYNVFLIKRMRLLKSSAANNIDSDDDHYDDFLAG

B1: oxidoreductase (At1g16720) (protein, UniProt Q8W4D6 1-598)
chain: MVGSIVGSNMAATDARFLSSNFGNSFSINTRIHRFHDRSQIVIPRAQSSSSPSPSPPSDKKKTKTRPGTITTKESEETVAKKLDVAPPSPQSPPSPPTLKLDDVNPVGLGRRSRQIFDEVWRKFSGLGQMSRTTRPDEQETLDSLLIREGPMCEFAVPGAQNVTVLVVGATSRIGRIVVRKLMLRGYTVKALVRKQDEEVMSMLPRSVDIVVGDVGEPSTLKSAVESCSKIIYCATARSTITADLTRVDHLGVYNLTKAFQDYNNRLAQLRAGKSSKSKLLLAKFKSAESLDGWEIRQGTYFQDTTASKYDGGMDAKFEFTETERAEFSGYVFTRGGYVELSKKLSLPLGTTLDRYEGLVLSVGGNGRSYVVILEAGPSSDMSQSKQYFARISTKAGFCRVRVPFSAFRPVNPEDPPLDPFLVHTLTIRFEPKRQRPVDGLAGAQQDLRSFSLVFEYIKALPAGQETDFILVSCTGSGVEANRREQVLKAKRAGEDSLRRSGLGYTIIRPGPLKEEPGGQRALIFDQGNRISQGISCADVADICVKALHDSTARNKSFDVCHEYVAEQGIELYELVAHLPDKANNYLTPALSVLEKNT
B2: ethylene-inducing calmodulin-binding protein (At5g09410) (protein, UniProt Q9FY74 1-1007)
chain: MVDRRSFGSITPPLQLDMEQLLSEAQHRWLRPTEICEILQNYHKFHIASESPTRPASGSLFLFDRKVLRYFRKDGHNWRKKKDGKTIREAHEKLKVGSIDVLHCYYAHGEANENFQRRCYWMLEQHLMHIVFVHYLEVKGNRTSIGMKENNSNSVNGTASVNIDSTASPTSTLSSLCEDADTGDSQQASSVLRPSPEPQTGNRYGWTPAPGMRNVSQVHGNRVRESDSQRLVDVRALDTVGNSLTRFHDQPYCNNLLTQMQPSNTDSMLVEENSEKGGRLKAEHIRNPLQTQFNWQDDTDLALFEQSAQDNFETFSSLLGSENLQPFGISYQAPPSNMDSEYMPVMKILRRSEDSLKKVDSFSKWAIKELGEMEDLQMQSSRGDIAWTTVECETAAAGISLSPSLSEDQRFTIVDFWPKSAKTDAEVEVMVIGTFLLSPQEVTKYNWSCMFGEVEVPAEILVDGVLCCHAPPHTAGHVPFYVTCSNRFACSEVREFDFLSGSTQKINATDVYGTYTNEASLQLRFEKMLAHRDFVHEHHIFEDVGDKRRQISKIMLLKEEKEYLLPGTYQRDSTKQEPKGQLFRELFEEELYIWLIHKVTEEGKGPNILDEDGQGILHFVAALGYDWAIKPVLAAGVNINFRDANGWSALHWAAFSGREETVAVLVSLGADAGALTDPSPELPLGKTAADLAYANGHRGISGFLAESSLTSYLEKLTVDSKENSPANSCGEKAVQTVSERTAAPMTYGDVPEKLSLKDSLTAVRNATQAADRLHQVFRMQSFQRKQLCDIGDDEKIDISDQLAVSFAASKTKNPGQGDVSLSCAATHIQKKYRGWKKRKEFLLIRQRIVKIQAHVRGHQVRKQYRTVIWSVGLLEKIILRWRRKGNGLRGFKRNAVAKTVEPEPPVSAICPRIPQEDEYDYLKEGRKQTEERLQKALTRVKSMVQYPEARDQYRRLLTVVEGFRENEASSSASINNKEEEAVNCEEDDFIDIESLLNDDTLMMSISP
B3: ubiquitin-protein ligase (At1g67530) (protein, UniProt Q9CAG5 1-782)
chain: MDVTELEENLFAASDAKLHGDMCKELSGVLCKVLSIFPSLEGARPRSKSGIQALCSLHIALEKAKNILQHCSECSKLYLAITGDAVLLKFEKAKIALIDGLKRVEDIVPSSIGSQILEIVGELENTRFMLDPSEKEVGDQIIALLQQGKKFDNCNDNTELEIFHRAATRLSITSSRVALAERRALKKLIDRARAEEDKRKESIVAYLLHLMRKCSKLFRSEILDENDSPGSYPCSPNEDHGSVHGFGRQLSRFGSLNDKPMNSINSGQMPVPPEELRCPISLQLMCDPVIIASGQTYERVCIEKWFSDGHNTCPKTQQQLPHISLTPNNCVKGLIASWCEQNGTQIPSGPPESQDLDYWRLALSDSESTKSQSVNSIGSYKLKGVKIVPLEENGTTVVERQNTEESFVSDDDDEEDSDINVLERYQDLLAVLNEEEGLEKKCKVVEKIRLLLKDDEEARIFMGANGFVEALLRFLGSAVDDNNAAAQDSGAMALFNLAVNNNRNKELMLTSGVIRLLEKMISSAESHGSATALYLNLSCLDEAKSVIGSSQAVPFLVQLLQKEIETQCKLDALHALYNLSTYSPNIPALLSSNIIKSLQGLLASTGENLWIEKSLAVLLNLASSQEGKDEAVSSQGMISSLATVLDMGDTTEQEQAVSCLLILCNGRESCIQMVLQEGVIPSLVSISVNGTPRGREKSQKLLMLFREERQQRDQPSSNRDEPPQKEPARKSLSAPLSVHGSTPASASVQDYEPRVLSKSMSRRKSMARPFSFFWKKSYSVRE

biological target: T1, AtGyrB3 (Hybrigenics two-hybrid service) (A. thaliana); experiment: two-hybrid; yeast two-hybrid service (Hybrigenics); AtGyrA or AtGyrB3 used as the bait

binding, binds:
B1
B2
B3
